Reference: PubChem BioAssay AID1159584 (Peter MacCallum Cancer Centre, 2016)

Purpose: 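Knock-downs that harm CDH1-null cells more than parental MCF10A cells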 (primary screen)
System: human MCF10A breast epithelial cells, parental and CDH1-null
Knock-down reagent: siRNA against human genes
Measured: 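Cell viability by CellTiter-Glo ATP luminescence, each line scaled to the mean of mock wells across plates, then CDH1-null over parental ratio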
Reading the numbers: CDH1-null / parental viability ratio: higher = CDH1-null cells survive relatively better than parental; CDH1-null viability vs mock: higher = more viable CDH1-null cells
The deposit covers about 18,000 reagents; below is an unselected part. Not all columns of the deposit are shown. The record does not give: the amount of reagent, the time to read-out.

After knock-down of C11orf42 the results were CDH1-null / parental viability ratio 0.89; CDH1-null viability vs mock (fraction of mock) = 0.5. Silencing of GJB6 came out at: CDH1-null / parental viability ratio 1.02; CDH1-null viability vs mock (fraction of mock) = 1.04. After knock-down of SNRPE, the screen gave CDH1-null / parental viability ratio 1.44; CDH1-null viability vs mock (fraction of mock) = 0.56. WDR77 gave CDH1-null / parental viability ratio 1.03; CDH1-null viability vs mock (fraction of mock) = 0.7. After knock-down of PYCARD, the record shows CDH1-null / parental viability ratio 1.08; CDH1-null viability vs mock (fraction of mock) = 1.08. Depletion of ZBTB11 resulted in: CDH1-null / parental viability ratio 0.59; CDH1-null viability vs mock (fraction of mock) = 0.4.

CAPS gave CDH1-null / parental viability ratio 0.98; CDH1-null viability vs mock (fraction of mock) = 0.88. ATP5MJ gave CDH1-null / parental viability ratio 1.11; CDH1-null viability vs mock (fraction of mock) = 1.22. GLO1 showed CDH1-null / parental viability ratio 1.15; CDH1-null viability vs mock (fraction of mock) = 0.93. AK5 showed CDH1-null / parental viability ratio 0.89; CDH1-null viability vs mock (fraction of mock) = 0.8. Against GATA3 the deposit lists CDH1-null / parental viability ratio 0.98; CDH1-null viability vs mock (fraction of mock) = 0.88. LILRA2 gave CDH1-null / parental viability ratio 1.36; CDH1-null viability vs mock (fraction of mock) = 0.61.

After knock-down of DEPDC1B, the screen gave CDH1-null / parental viability ratio 1.01; CDH1-null viability vs mock (fraction of mock) = 0.76. After knock-down of ABCG1, the screen gave CDH1-null / parental viability ratio 0.96; CDH1-null viability vs mock (fraction of mock) = 1. POLR1G scored CDH1-null / parental viability ratio 1.1; CDH1-null viability vs mock (fraction of mock) = 0.53. Depletion of IMPG1 gave: CDH1-null / parental viability ratio 0.63; CDH1-null viability vs mock (fraction of mock) = 0.44. For C8orf58, the entry reads CDH1-null / parental viability ratio 1.05; CDH1-null viability vs mock (fraction of mock) = 0.6. Knock-down of IFT140 came out at: CDH1-null / parental viability ratio 1.09; CDH1-null viability vs mock (fraction of mock) = 0.95.

Part of the list above, reformatted.
gene symbol | CDH1-null / parental viability ratio | CDH1-null viability vs mock (fraction of mock)
SNRPE | 1.44 | 0.56
WDR77 | 1.03 | 0.7
PYCARD | 1.08 | 1.08
ZBTB11 | 0.59 | 0.4
CAPS | 0.98 | 0.88
ATP5MJ | 1.11 | 1.22
GLO1 | 1.15 | 0.93

The results go on.
With knock-down of CCNI2 the results were CDH1-null / parental viability ratio 1.06; CDH1-null viability vs mock (fraction of mock) = 0.87. USP37 scored CDH1-null / parental viability ratio 1.25; CDH1-null viability vs mock (fraction of mock) = 1.01. For MSS51, the entry reads CDH1-null / parental viability ratio 1.34; CDH1-null viability vs mock (fraction of mock) = 1.46. PRKRA scored CDH1-null / parental viability ratio 1.3; CDH1-null viability vs mock (fraction of mock) = 1.14. With knock-down of TRMT6 the results were CDH1-null / parental viability ratio 1; CDH1-null viability vs mock (fraction of mock) = 0.84. PSPHP1 showed CDH1-null / parental viability ratio 1.3; CDH1-null viability vs mock (fraction of mock) = 0.96.

Against FEM1C, the entry reads CDH1-null / parental viability ratio 1.11; CDH1-null viability vs mock (fraction of mock) = 0.82. With knock-down of SLC25A43, the screen gave CDH1-null / parental viability ratio 0.9; CDH1-null viability vs mock (fraction of mock) = 0.78. STEAP4 showed CDH1-null / parental viability ratio 0.89; CDH1-null viability vs mock (fraction of mock) = 0.68. PRNT gave CDH1-null / parental viability ratio 1.12; CDH1-null viability vs mock (fraction of mock) = 0.58. For KLF9 the deposit lists CDH1-null / parental viability ratio 0.89; CDH1-null viability vs mock (fraction of mock) = 0.87. Against CDHR5, the entry reads CDH1-null / parental viability ratio 0.75; CDH1-null viability vs mock (fraction of mock) = 0.58.

Silencing of TAF7 came out at: CDH1-null / parental viability ratio 0.79; CDH1-null viability vs mock (fraction of mock) = 0.6. For PPCS, the values are CDH1-null / parental viability ratio 1.27; CDH1-null viability vs mock (fraction of mock) = 1.04. Against TAP1, the values are CDH1-null / parental viability ratio 0.78; CDH1-null viability vs mock (fraction of mock) = 0.64. PCDH11X scored CDH1-null / parental viability ratio 1; CDH1-null viability vs mock (fraction of mock) = 0.7. Silencing of AMY1B gave: CDH1-null / parental viability ratio 0.92; CDH1-null viability vs mock (fraction of mock) = 0.74. LSAMP gave CDH1-null / parental viability ratio 1.11; CDH1-null viability vs mock (fraction of mock) = 0.62.

Knock-down of KCTD8 gave: CDH1-null / parental viability ratio 0.91; CDH1-null viability vs mock (fraction of mock) = 0.86. Depletion of SPACA3 came out at: CDH1-null / parental viability ratio 0.76; CDH1-null viability vs mock (fraction of mock) = 0.74. For FAM89B, the entry reads CDH1-null / parental viability ratio 0.76; CDH1-null viability vs mock (fraction of mock) = 0.56. For ALB, the entry reads CDH1-null / parental viability ratio 1.09; CDH1-null viability vs mock (fraction of mock) = 0.98. With knock-down of NEK4 the results were CDH1-null / parental viability ratio 0.77; CDH1-null viability vs mock (fraction of mock) = 0.62. GTF3A showed CDH1-null / parental viability ratio 1.56; CDH1-null viability vs mock (fraction of mock) = 0.78.

SIGLEC9 showed CDH1-null / parental viability ratio 1.01; CDH1-null viability vs mock (fraction of mock) = 0.99. Knock-down of ZBED2 came out at: CDH1-null / parental viability ratio 1.26; CDH1-null viability vs mock (fraction of mock) = 0.72. OR7C1 showed CDH1-null / parental viability ratio 0.95; CDH1-null viability vs mock (fraction of mock) = 0.96.
